These are yes or no findings as the source states them, for the method shown. In cells and extracts the contact can be indirect. Some binding calls cover weakened binding; strength is not graded here.
Assays:
[1] = molecular target: Histone deacetylase 4 (mouse (endogenous in mTECs)) (UniProt Q6NZM9); assay: co-IP; lysate of mTECs treated with or without TGF-β1 (5 ng/ml) for 48 hours; IP with Foxo3a antibody or HDAC4 antibody, IgG control; Protein A/G Magnetic Beads, washed five times with PBST (0.05% Tween-20), eluted with 1× SDS loading buffer; immunoblot
[2] = molecular target: Foxo3a (mouse (endogenous in mTECs)) (UniProt Q9WVH4); assay: as above

By UniProt entry, the sequences of proteins in these tests, tags left out.
UniProt Q6NZM9: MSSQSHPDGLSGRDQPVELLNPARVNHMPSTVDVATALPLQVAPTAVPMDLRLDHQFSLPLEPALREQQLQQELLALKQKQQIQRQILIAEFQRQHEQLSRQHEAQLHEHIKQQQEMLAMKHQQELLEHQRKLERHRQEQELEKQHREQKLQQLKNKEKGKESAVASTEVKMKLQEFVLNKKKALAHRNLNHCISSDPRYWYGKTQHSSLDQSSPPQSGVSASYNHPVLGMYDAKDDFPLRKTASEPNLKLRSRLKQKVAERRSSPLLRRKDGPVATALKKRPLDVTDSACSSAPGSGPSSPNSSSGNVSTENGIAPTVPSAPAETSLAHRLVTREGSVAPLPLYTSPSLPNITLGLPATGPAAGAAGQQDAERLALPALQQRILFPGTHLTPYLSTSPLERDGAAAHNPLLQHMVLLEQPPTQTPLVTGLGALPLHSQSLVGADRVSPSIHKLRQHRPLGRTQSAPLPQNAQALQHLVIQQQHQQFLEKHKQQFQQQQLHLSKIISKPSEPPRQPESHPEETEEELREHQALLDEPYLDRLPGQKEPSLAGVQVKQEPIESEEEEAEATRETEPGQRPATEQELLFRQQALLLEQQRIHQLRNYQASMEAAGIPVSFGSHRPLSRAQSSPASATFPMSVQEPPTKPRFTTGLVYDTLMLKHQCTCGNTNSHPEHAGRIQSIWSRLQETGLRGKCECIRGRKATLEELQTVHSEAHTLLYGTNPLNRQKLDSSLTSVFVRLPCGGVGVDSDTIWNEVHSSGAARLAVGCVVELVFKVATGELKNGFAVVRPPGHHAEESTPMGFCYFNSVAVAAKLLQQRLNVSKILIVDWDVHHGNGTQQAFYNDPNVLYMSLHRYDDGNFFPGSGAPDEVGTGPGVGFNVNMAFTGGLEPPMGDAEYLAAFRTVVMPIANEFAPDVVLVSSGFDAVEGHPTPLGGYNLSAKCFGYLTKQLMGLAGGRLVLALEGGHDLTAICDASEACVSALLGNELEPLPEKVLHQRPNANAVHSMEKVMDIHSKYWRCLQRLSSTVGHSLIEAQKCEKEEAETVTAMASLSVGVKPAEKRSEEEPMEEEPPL
UniProt Q9WVH4: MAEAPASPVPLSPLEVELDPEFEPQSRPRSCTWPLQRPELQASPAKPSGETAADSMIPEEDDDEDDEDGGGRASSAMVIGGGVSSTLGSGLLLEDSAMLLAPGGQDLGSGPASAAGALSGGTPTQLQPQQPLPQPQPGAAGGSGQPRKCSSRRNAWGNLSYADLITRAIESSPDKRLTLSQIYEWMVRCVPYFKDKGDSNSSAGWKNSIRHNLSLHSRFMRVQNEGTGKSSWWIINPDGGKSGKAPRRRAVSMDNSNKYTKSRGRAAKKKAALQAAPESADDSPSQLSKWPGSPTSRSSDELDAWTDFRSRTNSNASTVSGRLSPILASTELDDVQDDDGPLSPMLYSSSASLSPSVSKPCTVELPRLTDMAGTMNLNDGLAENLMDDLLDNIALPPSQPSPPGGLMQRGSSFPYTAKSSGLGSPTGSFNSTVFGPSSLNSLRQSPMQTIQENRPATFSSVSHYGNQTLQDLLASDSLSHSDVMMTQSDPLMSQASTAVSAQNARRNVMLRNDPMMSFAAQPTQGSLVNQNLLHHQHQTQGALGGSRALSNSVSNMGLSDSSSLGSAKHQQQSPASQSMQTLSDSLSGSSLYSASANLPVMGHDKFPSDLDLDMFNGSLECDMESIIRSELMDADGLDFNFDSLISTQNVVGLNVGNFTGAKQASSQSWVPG

| Substance | binding [1] | binding [2] |
| --- | --- | --- |
| Foxo3a (from UniProt Q9WVH4 1-672) | binds |  |
| Histone deacetylase 4 (from UniProt Q6NZM9 1-1076) (enzyme) |  | binds |

From paper PMC12636735
